Results on eight substances are retold here after US4672054A (Richter Gedeon Vegyeszeti Gyar Rt., priority 1984, dated 1987).

Strings that start with PEPTIDE1 are HELM notation: dots part the residues, brackets hold end groups and non-standard residues.

A short description of the first series: general procedure: solution-phase peptide synthesis; pentafluorophenyl active esters (OPfp). Particulars: late stage modification step.
“Z-Sar-Arg(NO2)-Val-Tyr(Bzl)-Chg-His-Pro-Ala-ONB”: the step yield worked out at 91%.

Regarding “PEPTIDE1{[Sar].R.V.Y.[Chg].H.P.A}$$$$V2.0”, the step yield came to 74%.

Staying with this series, now noted: late stage modification step, related to protected octapeptide.
As to “PEPTIDE1{[Lac].R.V.Y.[Cpg].H.P.[Lac]}$$$$V2.0”, the step yield was 78%.

Turning to “PEPTIDE1{[Sar].R.V.Y.[Cpg].H.P.A}$$$$V2.0”, the step yield turned out to be 69%.

For the substance “PEPTIDE1{[Sar].R.V.Y.[Chg].H.P.A}$$$$V2.0”, the step yield was 74%.

Substance “PEPTIDE1{[Sar].R.V.Y.[Chg].H.P.[Lac]}$$$$V2.0” had a step yield of 72%.

As to “PEPTIDE1{[HOAc].R.V.Y.[Chg].H.P.[Lac]}$$$$V2.0”, the step yield came out at 55%.

As for “PEPTIDE1{[Sar].R.V.Y.[Cpg].H.P.[Lac]}$$$$V2.0”, the step yield stood at 66%.

Staying with this series, now noted: whole synthesis, related to Boc-His(Dnp)-Pro-Ala-ONB.
Regarding “Z-Sar-Arg(NO2)-Val-Tyr(Bzl)-Chg-His(Dnp)-Pro-Ala-ONB”, the crude yield came to 70%.
